PubChem BioAssay AID2685 (National Center for Advancing Translational Sciences (NCATS), 2010)
The whole screen tested about 320,000 compounds, of which about 2,100 (0.66%) were called active. The shares of active, inactive and inconclusive entries below differ from those in the screen. Calls follow the shape of the dose curve; as a rule, active = well fitted inhibition curve with a large enough effect in the signal ratio, with a control signal flat (not every such curve was filed as active); inconclusive = small, poorly fitted or top-dose-only effect, or effect the other way, or a change in a side signal; inactive = flat fitted curve, though single readings scatter; the % refers to the signal ratio. Potencies beside an inconclusive call are fits to weak or partial responses and may not hold up.

Test: qHTS Assay for Lipid Storage Modulators in Drosophila S3 Cells
Details: BODIPY lipid droplet fluorescence, 18-24 h, cells fed with added oleic acid; lipid storage change, negative = inhibition: at 46.1 µM (top of the series) unless noted
Method in brief: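 Drosophila S3 cells loaded with oleic acid (400 uM, as added) and compounds at several concentrations; lipid droplets imaged by 488-nm laser-scanning cytometry, 500–530 nm intensity and object ratio to cell channel. Percent activity normalized to 20 uM Triacsin C.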
% is scaled to controls: 0 for no effect and ±100 for the full control effect; potency is read from the fitted curve at half-maximal effect.

Structure (SMILES)	lipid storage change, negative = inhibition	Potency	outcome
Cc1cccc(C(=O)Oc2ccccc2C(=O)N2CCOCC2)c1	inconclusive: -34.8%		
CCOC(=O)N1CC=C2C(C#N)=C(N)C(C#N)(C#N)[C@H](c3ccsc3)[C@H]2C1	inconclusive: 25.1%		
Cc1ccc(SCC(=O)c2ccc[nH]2)cc1	inconclusive: 13%		
Brc1ccc(Oc2nsnc2N2CCOCC2)cc1	inconclusive: 21.9%		
COC(=O)c1ccc(NC(=O)CCS(=O)(=O)c2ccc(C)cc2)cc1	inconclusive: 52.8%		
CCOC(=O)N1CCN(C(=O)Cn2cnc3ccccc3c2=O)CC1	inconclusive: 44.8%		
COCC(=O)Nc1ccc(S(=O)(=O)Nc2nccs2)cc1	inconclusive: 25.7%		
O=C1Nc2cc(C(=O)NCCCN3CCOCC3)ccc2S/C1=C/c1cccc(Cl)c1		inconclusive: 3.66 µM [activator, full curve]	
Cc1ccc(NC(=O)Cn2nc(C(=O)O)c3ccccc3c2=O)cc1S(=O)(=O)N1CCOCC1		inconclusive: 0.206 µM [activator, full curve, poor fit]	
CCOc1ccc(CCNC(=O)CCc2nnc3ccc(N4CCOCC4)nn23)cc1	inconclusive: 23.2%		
COc1ccc(-n2c(=S)[nH]c3cc(C(=O)NCCCN4CCCC4=O)ccc3c2=O)c(OC)c1		inconclusive: 29.1 µM [rising, single point]	
O=C(Nc1cccc(Br)c1)c1ccc2snnc2c1		inconclusive: 29.1 µM [falling, single point]	
O=C(CSc1nnnn1-c1ccccc1)Nc1nc(-c2ccccc2)ns1		inconclusive: 13 µM [rising, partial curve]	
COc1ccc(CN2CCN(Cc3ccc(CO)o3)CC2CCO)cc1C (stereo unspecified)	inconclusive: 110%		
NN/C(=C\[N+](=O)[O-])Nc1ccc(Cl)cc1	inconclusive: 15.2% [at 9.22 µM]		
O=S(=O)(c1cccc(Br)c1)N1CCN(C(=S)NCC2CCCO2)CC1 (stereo unspecified)	inconclusive		
Cc1cccc(NC(=O)CCC(=O)N2CCOCC2)n1	inactive: 6.69%		
CCOC(=O)/C=C1\SCC(=O)N1CC(=O)NCc1cccc(Cl)c1	inconclusive: 16.3%		
CC1=NN(C(=O)c2nn(C)cc2Br)C(O)(C(F)(F)F)C1 (stereo unspecified)	inconclusive: 11.7%		
N=C1CCC(=N)c2c1c(O)c1ccccc1c2O		inconclusive: 29.1 µM [falling, single point]	
O=C(/C(=C/c1cccc(Cl)c1)c1nc2ccccc2[nH]1)c1ccccc1		active: 9.2 µM	
C/C(=N\NC(=O)CSc1nc2ccccc2o1)c1cccc(O)c1		inconclusive: 1.64 µM [falling, partial curve, poor fit]	
O=C(Cc1cn2ccsc2n1)Nc1ccccc1Oc1ccccc1	inconclusive: 24.1%		
Cc1ccc(CS(=O)(=O)c2ncc(Cl)c(C(=O)Nc3ccc(OC(F)F)cc3)n2)cc1		active: 1.16 µM	
CC1CCCN(C2(O)C(=O)Nc3ccc(Cl)cc32)C1 (stereo unspecified)	inconclusive: 12.5%		
CCCCCCn1c(=O)c(C(=O)N/N=C/c2cccc(F)c2)c(O)c2ccccc21	inactive: -4%		

Reprinted from above for reference:
Structure (SMILES)	lipid storage change, negative = inhibition	Potency	outcome
O=C(/C(=C/c1cccc(Cl)c1)c1nc2ccccc2[nH]1)c1ccccc1		active: 9.2 µM	
C/C(=N\NC(=O)CSc1nc2ccccc2o1)c1cccc(O)c1		inconclusive: 1.64 µM [falling, partial curve, poor fit]	
O=C(Cc1cn2ccsc2n1)Nc1ccccc1Oc1ccccc1	inconclusive: 24.1%		

The listing continues.

Structure (SMILES)	lipid storage change, negative = inhibition	Potency	outcome
Cn1ccnc1-c1ccc(-c2nccn2C)cc1	inconclusive: 71.2%		
O=C(N[C@H]1CCC(=O)N([C@H](CSc2ccccc2)Cc2ccccc2)CC1)OCc1ccccc1	inconclusive: -37.6%		
O=C(c1ccc2ccccc2c1)N1CCOCC1	inconclusive		
CCOc1ccccc1NC(=O)N1CCC(c2nc3ccccc3[nH]2)CC1		inconclusive: 2.31 µM [activator, partial curve]	
CCNc1nc(-c2cc(C)n(Cc3ccco3)c2C)cs1	inconclusive: 20%		
CCCC1S/C(=N/N=C/c2ccco2)NC1=O (stereo unspecified)		inconclusive: 29.1 µM [falling, single point]	
COc1ccc(CCNC(=O)c2ccccc2Cl)cc1OC		inconclusive: 32.6 µM [activator, single point]	
O=C(O)c1c(-c2ccccc2)c(-c2ccccc2)nc2ccccc12		inconclusive: 7.31 µM [falling, single point]	
O=C(C1CCC1)N(CCc1ccccc1)Cc1nc2ccccc2c(=O)[nH]1	inconclusive: 18.6%		
Clc1ccc(SCc2cc(-c3ccc(Cl)cc3)on2)cc1	inconclusive: 39.5%		
Cc1cc2cc(CNC(=O)c3ccc4c(c3)OCO4)ccc2[nH]1	inconclusive: 25.9%		
CCOc1ccc(N=c2scc(-c3ccccc3)n2CCO)cc1		inconclusive: 29.1 µM [falling, single point]	
COc1ccc(NC(=O)CSc2nnc(COc3ccccc3)n2Cc2ccco2)cc1OC	inconclusive: -13.2%		
COc1ccc(S(=O)(=O)NC2CCSc3ccccc32)cc1OC (stereo unspecified)		inconclusive: 6.51 µM [activator, single point]	
CC1(C)C2CCC1(C)C(OC(=O)CC(=O)O)C2 (stereo unspecified)	inconclusive: -13.8%		
C[C@H](NC(=O)C1CCN(S(=O)(=O)c2ccccc2)CC1)C(=O)NCc1ccc(F)cc1	inactive: 25.5%		
COc1ccc(NS(=O)(=O)c2cc(NC(=O)CC(=O)c3ccc([N+](=O)[O-])cc3)ccc2C)cc1	inconclusive: 78.6%		
CCOc1nc(C)ccc1-c1noc(-c2ccccn2)n1		inconclusive: 3.66 µM [activator, partial curve]	
CCC(=O)Nc1ccc(C(=O)N/N=C/c2c(C)[nH]c3ccccc23)cc1	inconclusive: -32.4% [at 0.369 µM]		
CC(Sc1nnc(CNC(=O)c2ccco2)n1C)C(=O)Nc1nccs1 (stereo unspecified)	inconclusive: -65.7%		
CCN(CC)CCCNC(=O)c1cc2c(-c3cccc(OC)c3)nn(C)c2s1	inconclusive: -42.3%		
COc1ccc(Cc2nnc(SCC(=O)Nc3ccc(C)c(C)c3)o2)cc1OC	inconclusive: -4.12%		
CCCn1c(=O)c2sccc2n2c(CCCC(=O)NC3CCN(Cc4ccccc4)CC3)nnc12			inactive [at 46.1 µM]
O=C(CCc1nnc2ccc(NCc3ccco3)nn12)N1CCN(c2ccccc2F)CC1	inconclusive: -158%		
O=C(Nc1ccc(S(=O)(=O)Nc2nccs2)cc1)c1nn(-c2ccccc2)ccc1=O		inconclusive: 6.51 µM [activator, partial curve, poor fit]	
